Test results from patent publication US20240277797A1, “METHOD FOR TREATING OR PREVENTING NEOVASCULAR EYE DISEASE” (Suzhou Mingren Pharmaceutical Biotechnology Co., Ltd., priority 2022, published 2024).
Not every detail of the peptide structures is certain; ends, links or a residue may be inferred. Where a SMILES comes first, the peptide text is derived from it.

How the values were obtained:
[1] = system: 532-nm laser-induced CNV mouse model; assay: 532-nm laser-induced CNV mouse model, intravitreal injection; type: in vivo
[2] = system: ROS/NF-κB signaling pathway; assay: Oxidative stress and inflammation markers in choroidal tissue and lesions of CNV mice; type: in vivo, mouse
[3] = system: mouse microglia (BV2) cells; assay: LPS-treated BV2 cells: oxidative stress and inflammatory response; type: cell-based; details: 24 h
[4] = system: MEK1/2/SP1/integrin αVβ3 axis and TRIM25/SP1/MMP2 axis; assay: Immunohistochemistry and immunoblotting of MEK1/2/SP1/integrin αVβ3 and TRIM25/SP1/MMP2 axes in choroidal tissues of CNV mice; type: in vivo, mouse
HUVECs [5] = assay: HUVEC tube formation assay (VEGF-induced); type: cell-based, human; details: VEGF 50 ng/ml, JP1 0, 50, 100, 200 μM, 24 h
HUVECs [6] = assay: HUVEC Transwell migration assay (VEGF-induced); type: cell-based, human; details: VEGF 50 ng/ml, JP1 0, 50, 100, 200 μM, 24 h
HUVECs [7] = assay: HUVEC EdU proliferation assay (VEGF-induced); type: cell-based, human; details: VEGF 50 ng/ml, JP1 0, 50, 100, 200 μM, 24 h
[8] = system: MEK1/2-SP1-Integrin αvβ3 and TRIM25/SP1/MMP2 axis; assay: Immunoblotting of VEGF and JP1-treated HUVECs; type: cell-based, human; details: VEGF 50 ng/ml, JP1 0-200 μM, 24 h, in a dose-dependent manner
[9] = system: streptozotocin (STZ)-induced diabetes mouse model; assay: Streptozotocin-induced diabetes mouse model: retinal vascular density and leakage; type: in vivo; details: STZ diabetic mice
Experimental: C57BL/6 mice (male, 3-5 weeks old) were administered with intraperitoneal injection of streptozotocin (STZ) (7.5 mg/mL; S-0130, Sigma Aldrich, St. Louis, MO, USA), fresh dissolved Na Citrate (CAM) buffer (pH: 4.5-4.7; S4641, Sigma) at a dose of 50 mg/kg, once daily, for 5 consecutive days. After one week, blood sugar ≥300 mg/dL was regarded as the onset of diabetes. Only mice with sustained high sugar for 3 weeks were used for subsequent experiments. […] The blood glucose of mice was measured every month to confirm the status of diabetes. Two months after the onset of diabetes, the mice were randomly divided into four groups with 10 mice in each group. […]
After the mice were anesthetized, 1 mL of PBS containing 40 mg/mL fluorescein isothiocyanate-glucan was perfused into the left ventricle (average mol wt: 2×10^6, Sigma, St Louis, MO, USA). […] Stretched preparation was made, and observe the flat bracket using a fluorescence microscope and take photos. The vascular density of capillary networks was analyzed using Angio Tool image analysis software. […]
Evans blue (45 mg/kg) was injected through the tail vein of mice for more than 10 s. […] Plasma Evans blue concentration was determined by taking 100 uL of blood. […]

NF-κB signaling pathway = assay: Inflammation and tight junction markers in retina of STZ diabetic mice; type: in vivo, mouse
[10] = system: laser induced CNV mouse model; assay: Laser-induced CNV mouse model, intraperitoneal injection; type: in vivo; details: intraperitoneal administration, 1 mg, 5 mg, 10 mg
CNV mouse model = assay: JP1-RGD eye drops in CNV mouse model; type: in vivo; details: eye drops 1, 5, 10 mM, 3 times a day for 1 week
[11] = immunofluorescence and immunoblotting, JP1-treated eyes
[12] = immunoblotting, JP1 40 μg intravitreal

N=C(N)NCCC[C@H](NC(=O)[C@H](Cc1ccccc1)NC(=O)[C@H](CCCNC(=N)N)NC(=O)[C@H](CC(=O)O)NC(=O)[C@H](COP(=O)(O)O)NC(=O)CNC(=O)[C@@H]1CCCN1C(=O)[C@@H](N)Cc1ccccc1)C(=O)NCC(=O)N[C@@H](CC(=O)O)C(=O)O [JP1] (HELM PEPTIDE1{F.P.G.[O=C([C@H](COP(=O)(O)O)N[*:1])[*:2]].D.R.F.R.G.D}$$$$V2.0; N-terminus and C-terminus assumed)
inhibitory effect on CNV compared with Ranibizumab (10 μg) ([1]; high-dose JP1 (40 μg), intravitreal): more potent inhibitory effect on CNV than Ranibizumab (10 μg)
inhibition of 532-nm laser-induced CNV ([1]; intravitreal injection, CNV mice): inhibited 532-nm laser-induced CNV in a dose-dependent manner
percentage of CNV lesions by leakage score (FFA) ([1]; intravitreal injection, JP1-treated group): the percentage of CNV lesions increased according to the 0 and 1 leakage scores, whereas the percentage of CNV lesions decreased according to the 2a and 2b leakage scores
area of laser-induced CNV (choroidal pavements, FITC-dextron perfusion) ([1]; intravitreal injection, compared to the control group): significantly reduced the area of laser-induced CNV
inhibition of laser-induced CNV at one week after laser induction ([1]; low, medium and high doses of JP1, intravitreal): effectively inhibited laser-induced CNV
fluorescence intensity of ROS in CNV slices ([2]; JP1 40 μg intravitreal, compared with control group): significantly reduced
level of glutathione peroxidase (GPx) in choroidal tissue ([2]; JP1 treated eyes, CNV mice): significantly increased
level of malondialdehyde (MDA) in choroidal tissue ([2]; JP1 treated eyes, CNV mice): significantly decreased
level of superoxide dismutase (SOD) in choroidal tissue ([2]; JP1 treated eyes, CNV mice): significantly increased
Nrf2 protein expression in choroidal tissues ([2]; immunoblotting, CNV mice): significantly increased
phosphorylation level of P65 in choroidal tissue ([2]; immunoblotting, CNV mice): downregulated the phosphorylation level of P65
VEGF protein expression in choroidal tissue ([2]; immunoblotting, JP1-treated eyes): reduced
IL-6 expression at CNV lesions [2, 11]: significantly down-regulated
TNF-α expression at CNV lesions [2, 11]: significantly down-regulated
aggregation activation of IBA-1-positive microglial cells ([2]; immunofluorescence double staining, CNV mice): significantly reduced the aggregation activation of IBA-1-positive microglial cells
fluorescence intensity of Nrf2 in choroidal tissue ([2]; immunofluorescence, CNV mice): enhanced the fluorescence intensity of Nrf2 in choroidal tissue
immune reactivity of p-P65 at the CNV lesion ([2]; immunofluorescence, compared with control group): reduced
production of ROS in BV2 cells (DCFH-DA) ([3]; LPS 1 μg/mL, JP1 0, 50, 100, 200 μM): negatively correlated with the JP1 concentration level
levels of inflammatory factors (VEGF, TNF-α, and IL-6) ([3]; immunoblotting, 1000 ng/mL LPS): effectively reduced the levels of inflammatory factors
phosphorylation of p-P65 ([3]; immunoblotting, 1000 ng/mL LPS): inhibited the phosphorylation of p-P65 in a dose-dependent manner
Nrf2 levels in BV2 cells ([3]; immunofluorescence and immunoblotting, LPS, JP1 0-200 μM): dose-dependently up-regulated Nrf2 levels
expression levels of p-P65 and inflammatory factors (TNF-α, IL-6 and iNOS) ([3]; immunofluorescence, LPS, JP1 0-200 μM): dose-dependently downregulated the expression levels of p-P65 and inflammatory factors
phosphorylation of MEK 1/2 and expression of SP1 in choroidal tissues [4, 12]: inhibited
protein expression levels of integrin αV, β3, and CD31 in choroidal tissues [4, 12]: down-regulated
protein expression levels of TRIM25 and MMP2 in choroidal tissues ([4]; immunoblotting, compared to the positive control agent RGZ): down-regulated
expression of integrin αV and β3 at ocular lesions ([4]; immunohistochemistry): downregulated
VEGF-induced angiogenesis (tube formation) of HUVEC cells (HUVECs [5]): dose-dependently inhibited
VEGF-induced migration of HUVEC cells (HUVECs [6]): dose-dependently inhibited
VEGF-induced proliferation of HUVEC cells (HUVECs [7]): dose-dependently inhibited
regulation of MEK1/2-SP1-Integrin αvβ3 and TRIM25/SP1/MMP2 axis in HUVECs [8]: regulated MEK1/2-SP1-Integrin αvβ3 and TRIM25/SP1/MMP2 axis
retinal vascular leakage (Evans blue) ([9]; JP1 40 μg intraocular): no significant retinal leakage was observed
retinal vascular density ([9]; intraocular injection once a week, 4 times, compared to normal mice of the same age): no significant decrease in retinal vascular density
TNF-α, IL-6 and VEGF in retinal tissues (NF-κB signaling pathway; immunoblot (FIG. 5F), JP1-treated diabetic mice): downregulated
fluorescence intensity of p-P65 and IBA1 in the retina (NF-κB signaling pathway; immunofluorescence, diabetic mice, compared with the PBS group): reduced
NF-κB signaling pathway and inflammatory factors (VEGF, TNF-α, and IL-6) in retina (NF-κB signaling pathway; immunohistochemistry assay (FIG. 5G), diabetic mice): inhibited the NF-κB signaling pathway and downregulated inflammatory factors
loss of retinal tight junction proteins (Occludin and ZO-1) (NF-κB signaling pathway; immunohistochemistry, immunofluorescence, immunoblotting, diabetic mice): attenuated the loss of retinal tight junction proteins
inhibition of CNV (level of vascular leakage, average area of CNV lesions, relative thickness) [10]: inhibits CNV in a dose-dependent manner
CNV leakage and area (CNV mouse model): effectively reduce CNV leakage and area
